PubChem BioAssay AID504784 | Drosophila RNAi Screening Center – 2011

- Assay: 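Fly genes whose silencing alters how much lipid cells keep in droplets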 (primary screen)
- System: Drosophila Kc167 embryonic cells
- Reagent: long dsRNA against Drosophila genes, about 250 ng dsRNA per well
- Duration: 4 days
- Conditions: cells fed 400 µM oleic acid bound to BSA
- Measurement: 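Cells imaged and segmented; ratio of lipid droplet area to nuclear area, log-transformed, then normalised as a B-score over the screen; higher means more stored lipid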
- Scale: droplet/nuclear area B-score: higher = more stored lipid (overstorage)
The screen tested about 17,000 reagents; this is a random part of those that have a named target and a result. 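Each column is one replicate's B-score; the combined score over replicates was not deposited, so single values may mislead.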 Not all columns of the deposit are shown.

droplet/nuclear area B-score, replicate 1, by gene knocked down and reagent
dnc: DRSC17758 0.0819; DRSC17759 3.55; DRSC17911 2.06; DRSC18763 0.38; DRSC18764 0.00162
onecut: DRSC17175 -1.46
CG9512: DRSC20189 0.0167
CG5707: DRSC08573 0.859
CG5112: DRSC15718 1.4
CG7720: DRSC16306 -0.0432; DRSC16307 -0.0717
CG7656: DRSC10900 1.27
CG17486: DRSC07752 0.512
por: DRSC20362 1.9
unc: DRSC20511 -0.897
hbs: DRSC07627 0.0974
CG16989: DRSC18535 1.21
CG32599: DRSC19433 -0.837
Oatp33Ea: DRSC02859 0.164
CG14013: DRSC02344 0.89
M6: DRSC11869 -0.921
CG4907: DRSC15673 -0.614
tbrd-1: DRSC14601 0.128
CG13078: DRSC02182 0.949
CLS: DRSC15642 -0.608
Dlg5: DRSC02964 -2.03
Pburs: DRSC02483 1.96
NTPase: DRSC00761 -0.413
Lim1: DRSC17752 0.0908; DRSC18677 0.647
AstA-R1: DRSC17278 -0.258; DRSC17727 1.12
dcma: DRSC00246 0.501; DRSC00338 0.0192
Asciz: DRSC08421 0.614
Cyp313a2: DRSC16625 -1.42
CG8768: DRSC07259 -0.325
CG14795: DRSC18513 -0.626
pgc: DRSC04099 -1.54
CG7140: DRSC11799 1.41
Ccn: DRSC09504 -2.55; DRSC09506 0.416; DRSC10062 -0.263; DRSC10063 -0.846
pxb: DRSC13110 -1.54; DRSC14996 -6.13; DRSC14997 0.223; DRSC22225 -1.28
CG8476: DRSC16426 2.03
Ets98B: DRSC16666 0.0766
p47: DRSC06046 -1.28
CG2336: DRSC12581 -0.221
CG11638: DRSC18167 -1.76; DRSC18640 0.295
CG11180: DRSC06055 0.176
SERCA: DRSC04600 -0.242

7 entries from above, reformatted.
| gene knocked down | DRSC id | droplet/nuclear area B-score, replicate 1 |
| --- | --- | --- |
| AstA-R1 | DRSC17278 | -0.258 |
| AstA-R1 | DRSC17727 | 1.12 |
| dcma | DRSC00246 | 0.501 |
| dcma | DRSC00338 | 0.0192 |
| Asciz | DRSC08421 | 0.614 |
| Cyp313a2 | DRSC16625 | -1.42 |
| CG8768 | DRSC07259 | -0.325 |
